Assay results as given in PMC7864959.
No constants are given. Whether binding was seen depends on the method and setting. Some results given as binding are weak or reduced against the parent protein; the word gives no strength.

The chains behind the UniProt entries cited, without tags or fusion partners. Where a name states a change or a piece, a line headed by the entry shows the natural chain unless it says otherwise.
UniProt Q14790: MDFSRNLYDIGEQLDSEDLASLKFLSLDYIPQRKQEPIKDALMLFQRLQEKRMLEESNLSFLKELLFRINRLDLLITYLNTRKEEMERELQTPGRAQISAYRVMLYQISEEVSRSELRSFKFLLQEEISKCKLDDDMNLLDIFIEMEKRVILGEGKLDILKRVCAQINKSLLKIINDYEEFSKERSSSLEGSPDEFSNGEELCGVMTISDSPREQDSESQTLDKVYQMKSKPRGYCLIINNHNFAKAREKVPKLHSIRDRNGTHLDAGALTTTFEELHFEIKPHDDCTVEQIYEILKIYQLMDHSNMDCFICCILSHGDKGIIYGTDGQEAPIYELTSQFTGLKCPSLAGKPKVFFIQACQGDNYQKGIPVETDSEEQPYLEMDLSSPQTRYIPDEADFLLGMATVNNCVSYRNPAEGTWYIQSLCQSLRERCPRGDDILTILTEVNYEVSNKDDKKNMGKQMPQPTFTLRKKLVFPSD

What was measured:
[1] = molecular target: full-length catalytically inactive Caspase-8 (C360A) (UniProt Q14790); assay: cryo-EM structure; FADD:Caspase-8:FLAG-c-FLIPS complex co-expressed in HEK 293F, FLAG-purified, gradient fraction fixed with 0.1% glutaraldehyde; Titan Krios 300 kV; map of ~13 Å; published and threaded structures fitted as rigid bodies
[2] = molecular target: full-length catalytically inactive Caspase-8 (C360A) (UniProt Q14790); assay: negative-stain EM (single-particle analysis, immuno-gold labelling); single glycerol gradient fractions of FLAG-purified co-expressed complexes, fixed with glutaraldehyde, uranyl acetate stain; 2D classes and low-resolution 3D maps (RELION, CryoSPARC); immuno-gold with anti-FLAG or anti-Caspase-8

- binding [1]: binds
- binding [2]: binds
Substance: full-length catalytically inactive Caspase-8 (C360A) (from UniProt Q14790 1-479) (enzyme)
